Reference: publication doi:10.1101/2020.06.03.131094
Results are given in words; binding and its absence hold for the method and conditions named. For some assays here: Binding seen in cells or lysates may run through a third protein. Some results given as binding are weak or reduced against the parent protein; the word gives no strength. For some assays here: Sequences can lack the tags named with a protein. Each block holds one binder with its values, some of them ahead of it.

Key:
[1] = molecular target: T1, ATL31-FLAG (Arabidopsis thaliana) (UniProt Q8LGA5); assay: co-IP
T1 sequence: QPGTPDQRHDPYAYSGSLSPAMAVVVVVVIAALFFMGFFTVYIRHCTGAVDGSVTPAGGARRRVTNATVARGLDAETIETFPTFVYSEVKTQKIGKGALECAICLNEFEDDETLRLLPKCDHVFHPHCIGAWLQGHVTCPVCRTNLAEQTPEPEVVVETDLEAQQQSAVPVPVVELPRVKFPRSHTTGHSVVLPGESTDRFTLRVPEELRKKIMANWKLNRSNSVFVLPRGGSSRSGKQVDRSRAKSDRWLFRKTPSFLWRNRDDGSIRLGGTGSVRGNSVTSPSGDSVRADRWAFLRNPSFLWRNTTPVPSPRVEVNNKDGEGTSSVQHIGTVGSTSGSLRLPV

[2] = molecular target: T2, ATL31^C143S-FLAG (Arabidopsis thaliana) (UniProt Q8LGA5); assay: co-IP
T2 sequence: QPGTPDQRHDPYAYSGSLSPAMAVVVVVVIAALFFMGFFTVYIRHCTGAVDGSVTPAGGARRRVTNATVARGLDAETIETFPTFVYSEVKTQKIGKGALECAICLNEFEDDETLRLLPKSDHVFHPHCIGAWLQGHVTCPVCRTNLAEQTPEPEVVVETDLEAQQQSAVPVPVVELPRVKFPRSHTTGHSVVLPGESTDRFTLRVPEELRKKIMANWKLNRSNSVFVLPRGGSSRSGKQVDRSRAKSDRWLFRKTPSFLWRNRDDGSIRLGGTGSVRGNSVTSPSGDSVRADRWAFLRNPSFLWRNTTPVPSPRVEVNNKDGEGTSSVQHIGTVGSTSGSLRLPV

[3] = molecular target: T3, ATL31-GFP (Arabidopsis thaliana) (UniProt Q8LGA5); assay: co-IP
T3 sequence: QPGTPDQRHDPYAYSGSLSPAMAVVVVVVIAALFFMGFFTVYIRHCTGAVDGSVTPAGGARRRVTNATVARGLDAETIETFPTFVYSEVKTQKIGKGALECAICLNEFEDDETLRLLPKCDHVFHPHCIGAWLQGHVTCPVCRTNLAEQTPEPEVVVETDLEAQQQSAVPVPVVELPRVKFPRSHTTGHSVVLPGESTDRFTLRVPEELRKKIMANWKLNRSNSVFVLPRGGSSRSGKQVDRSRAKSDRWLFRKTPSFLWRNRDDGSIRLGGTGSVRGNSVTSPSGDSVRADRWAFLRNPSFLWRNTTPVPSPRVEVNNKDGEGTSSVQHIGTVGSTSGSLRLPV

[4] = molecular target: T4, ATL31-Cub (Arabidopsis thaliana) (UniProt Q8LGA5); assay: two-hybrid
T4 sequence: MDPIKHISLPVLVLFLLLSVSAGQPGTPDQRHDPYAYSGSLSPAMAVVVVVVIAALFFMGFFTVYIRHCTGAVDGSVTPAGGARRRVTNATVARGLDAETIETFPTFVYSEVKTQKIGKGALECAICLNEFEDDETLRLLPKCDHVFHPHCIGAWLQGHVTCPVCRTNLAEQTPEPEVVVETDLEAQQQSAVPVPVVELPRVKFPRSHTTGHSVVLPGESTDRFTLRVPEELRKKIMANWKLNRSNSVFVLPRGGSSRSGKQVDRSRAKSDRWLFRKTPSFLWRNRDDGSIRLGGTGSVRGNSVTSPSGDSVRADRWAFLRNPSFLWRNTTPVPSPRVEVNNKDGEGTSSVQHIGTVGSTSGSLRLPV

[5] = molecular target: T5, ATL31^C143S-Cub (Arabidopsis thaliana) (UniProt Q8LGA5); assay: two-hybrid
T5 sequence: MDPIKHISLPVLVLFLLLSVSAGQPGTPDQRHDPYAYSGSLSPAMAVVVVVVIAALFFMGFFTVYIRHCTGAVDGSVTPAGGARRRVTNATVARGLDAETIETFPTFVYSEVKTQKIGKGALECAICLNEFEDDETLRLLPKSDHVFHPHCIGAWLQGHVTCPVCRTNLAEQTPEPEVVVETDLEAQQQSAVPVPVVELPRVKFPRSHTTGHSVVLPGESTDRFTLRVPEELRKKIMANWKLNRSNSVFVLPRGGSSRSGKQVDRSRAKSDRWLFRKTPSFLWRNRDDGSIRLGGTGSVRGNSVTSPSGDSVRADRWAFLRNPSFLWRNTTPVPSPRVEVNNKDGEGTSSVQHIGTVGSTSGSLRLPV

binding [1]: binds
binding [2]: binds
B1: GFP-SYP61 (protein, UniProt Q946Y7 1-245)
chain: MSSAQDPFYIVKEEIQDSIDKLQSTFHKWERISPDMGDQAHVAKELVATCGSIEWQVDELEKAITVAAKDPSWYGIDEAELEKRRRWTSNARTQVRNVKSGVLAGKVSSGAGHASEVRRELMRMPNSGEASRYDQYGGRDDDGFVQSESDRQMLLIKQQDEELDELSKSVQRIGGVGLTIHDELVAQERIIDELDTEMDSTKNRLEFVQKKVGMVMKKAGAKGQMMMICFLLVLFIILFVLVFLT

binding [3]: binds
B2: endogenous SYP61 (protein, UniProt Q946Y7 1-245)
chain: MSSAQDPFYIVKEEIQDSIDKLQSTFHKWERISPDMGDQAHVAKELVATCGSIEWQVDELEKAITVAAKDPSWYGIDEAELEKRRRWTSNARTQVRNVKSGVLAGKVSSGAGHASEVRRELMRMPNSGEASRYDQYGGRDDDGFVQSESDRQMLLIKQQDEELDELSKSVQRIGGVGLTIHDELVAQERIIDELDTEMDSTKNRLEFVQKKVGMVMKKAGAKGQMMMICFLLVLFIILFVLVFLT

binding [4]: binds
binding [5]: binds
B3: Nub-SYP61 (protein, UniProt Q946Y7 1-245)
chain: MSSAQDPFYIVKEEIQDSIDKLQSTFHKWERISPDMGDQAHVAKELVATCGSIEWQVDELEKAITVAAKDPSWYGIDEAELEKRRRWTSNARTQVRNVKSGVLAGKVSSGAGHASEVRRELMRMPNSGEASRYDQYGGRDDDGFVQSESDRQMLLIKQQDEELDELSKSVQRIGGVGLTIHDELVAQERIIDELDTEMDSTKNRLEFVQKKVGMVMKKAGAKGQMMMICFLLVLFIILFVLVFLT
